# Construct, isoform or probe ends are uncertain for at least one entry. At least one result comes from cells or an extract, where the contact may be indirect. At least one verdict was read from the data and is not stated in words by the source. Where a protein sequence is shown, tags need not be part of it.
# Target: T1, mCherry-U2AF35 (UniProt Q01081)
# T1 sequence (looked up, limits assumed): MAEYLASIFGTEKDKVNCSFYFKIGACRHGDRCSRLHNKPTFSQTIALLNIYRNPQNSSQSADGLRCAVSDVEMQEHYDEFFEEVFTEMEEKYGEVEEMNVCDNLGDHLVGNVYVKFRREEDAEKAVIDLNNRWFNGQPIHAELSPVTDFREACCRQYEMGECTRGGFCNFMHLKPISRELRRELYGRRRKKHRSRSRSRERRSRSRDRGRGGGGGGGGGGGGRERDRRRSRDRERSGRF
# Test: competition with a labelled probe
# Details: -ATP, oligo reduces double occupancy of GloC-2x3'ss; HEK293T nuclear extract expressing fusion proteins, preincubated 15 min with ATP/phosphocreatine or ATP-depleted at 30 C; pre-mRNA 62.5 nM; protein in an extract; protein details: N-terminal mCherry
sequence,measurement,value
CCUUCUUCUUUUUCCUACAGCUC [globin 3'ss RNA oligo],binding result,binds
